Measurements published in patent US20190358343A1, “ADOPTIVE TRANSFER OF CAR T CELLS WITH SURFACE-CONJUGATED DRUG-LOADED NANOPARTICLES AND USES THEREOF” (University of Southern California, priority 2017, published 2019).

Assay: Drug encapsulation and release of SCH from cell-conjugated nanoparticles

Nc1nc2c(cnn2CCc2ccccc2)c2nc(-c3ccco3)nn12 [SCH-58261]
amount released within the first 48h-post conjugation: half the amount
